Experimental findings from PMC4820699 are described below.

Protein sequences, listed by entry. Tags and fused reporters are not part of them.
UniProt B5Z6X0: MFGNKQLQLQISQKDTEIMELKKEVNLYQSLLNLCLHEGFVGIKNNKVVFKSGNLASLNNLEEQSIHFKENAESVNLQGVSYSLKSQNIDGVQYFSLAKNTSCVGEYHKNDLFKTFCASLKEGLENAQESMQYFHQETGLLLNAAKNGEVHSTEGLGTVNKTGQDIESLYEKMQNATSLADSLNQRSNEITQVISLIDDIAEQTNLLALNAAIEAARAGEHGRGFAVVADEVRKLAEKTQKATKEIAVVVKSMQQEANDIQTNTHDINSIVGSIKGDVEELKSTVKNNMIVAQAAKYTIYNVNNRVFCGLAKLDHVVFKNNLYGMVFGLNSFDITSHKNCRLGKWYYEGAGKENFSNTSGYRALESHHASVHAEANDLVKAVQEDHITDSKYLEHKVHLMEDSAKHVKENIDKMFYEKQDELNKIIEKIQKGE
UniProt P77872: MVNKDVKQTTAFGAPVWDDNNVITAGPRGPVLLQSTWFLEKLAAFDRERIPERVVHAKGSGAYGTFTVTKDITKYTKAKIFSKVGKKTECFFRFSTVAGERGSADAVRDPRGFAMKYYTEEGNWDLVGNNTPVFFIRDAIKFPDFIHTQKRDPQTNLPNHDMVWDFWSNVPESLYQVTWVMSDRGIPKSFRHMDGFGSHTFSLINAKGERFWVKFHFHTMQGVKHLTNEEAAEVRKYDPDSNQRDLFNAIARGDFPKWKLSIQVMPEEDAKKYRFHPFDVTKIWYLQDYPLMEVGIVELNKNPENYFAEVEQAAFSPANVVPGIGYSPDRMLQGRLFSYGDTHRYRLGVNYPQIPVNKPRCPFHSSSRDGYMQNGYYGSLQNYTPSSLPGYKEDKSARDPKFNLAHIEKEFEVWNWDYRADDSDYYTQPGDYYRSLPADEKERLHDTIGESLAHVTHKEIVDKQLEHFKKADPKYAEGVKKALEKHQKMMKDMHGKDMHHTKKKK

The target in the experiment is histidine-tagged TlpD (TlpD-Hisx6) (H. pylori) (UniProt B5Z6X0). Kind of experiment: affinity purification with mass spectrometry; TlpD-Hisx6 pulled down on Talon (Cobalt2+-coupled) beads from cleared lysates of plate-grown H. pylori N6 tlpD (TlpD-Hisx6); bands >82 kDa seen only against the tlpD mutant control were cut from Coomassie-stained 12% SDS gels and analysed by MS/MS; two independent experiments.

These are yes or no findings as the source states them, for the method shown. In cells and extracts the contact can be indirect. These calls come from enrichment with a bait or labelling near it, and not all partners need be listed.

In the case of “catalase KatA (from UniProt P77872 1-505) (enzyme)”, the binding entry is given as “binds”.
